Results are given in words; binding and its absence hold for the method and conditions named. Binding seen in cells or lysates may run through a third protein. A yes stands for co-enrichment or nearness to the bait. Other partners may have been found. Where a sequence is shown, tags or fusion partners need not be part of it.

The chains behind the UniProt entries cited, without tags or fusion partners.
UniProt P35579: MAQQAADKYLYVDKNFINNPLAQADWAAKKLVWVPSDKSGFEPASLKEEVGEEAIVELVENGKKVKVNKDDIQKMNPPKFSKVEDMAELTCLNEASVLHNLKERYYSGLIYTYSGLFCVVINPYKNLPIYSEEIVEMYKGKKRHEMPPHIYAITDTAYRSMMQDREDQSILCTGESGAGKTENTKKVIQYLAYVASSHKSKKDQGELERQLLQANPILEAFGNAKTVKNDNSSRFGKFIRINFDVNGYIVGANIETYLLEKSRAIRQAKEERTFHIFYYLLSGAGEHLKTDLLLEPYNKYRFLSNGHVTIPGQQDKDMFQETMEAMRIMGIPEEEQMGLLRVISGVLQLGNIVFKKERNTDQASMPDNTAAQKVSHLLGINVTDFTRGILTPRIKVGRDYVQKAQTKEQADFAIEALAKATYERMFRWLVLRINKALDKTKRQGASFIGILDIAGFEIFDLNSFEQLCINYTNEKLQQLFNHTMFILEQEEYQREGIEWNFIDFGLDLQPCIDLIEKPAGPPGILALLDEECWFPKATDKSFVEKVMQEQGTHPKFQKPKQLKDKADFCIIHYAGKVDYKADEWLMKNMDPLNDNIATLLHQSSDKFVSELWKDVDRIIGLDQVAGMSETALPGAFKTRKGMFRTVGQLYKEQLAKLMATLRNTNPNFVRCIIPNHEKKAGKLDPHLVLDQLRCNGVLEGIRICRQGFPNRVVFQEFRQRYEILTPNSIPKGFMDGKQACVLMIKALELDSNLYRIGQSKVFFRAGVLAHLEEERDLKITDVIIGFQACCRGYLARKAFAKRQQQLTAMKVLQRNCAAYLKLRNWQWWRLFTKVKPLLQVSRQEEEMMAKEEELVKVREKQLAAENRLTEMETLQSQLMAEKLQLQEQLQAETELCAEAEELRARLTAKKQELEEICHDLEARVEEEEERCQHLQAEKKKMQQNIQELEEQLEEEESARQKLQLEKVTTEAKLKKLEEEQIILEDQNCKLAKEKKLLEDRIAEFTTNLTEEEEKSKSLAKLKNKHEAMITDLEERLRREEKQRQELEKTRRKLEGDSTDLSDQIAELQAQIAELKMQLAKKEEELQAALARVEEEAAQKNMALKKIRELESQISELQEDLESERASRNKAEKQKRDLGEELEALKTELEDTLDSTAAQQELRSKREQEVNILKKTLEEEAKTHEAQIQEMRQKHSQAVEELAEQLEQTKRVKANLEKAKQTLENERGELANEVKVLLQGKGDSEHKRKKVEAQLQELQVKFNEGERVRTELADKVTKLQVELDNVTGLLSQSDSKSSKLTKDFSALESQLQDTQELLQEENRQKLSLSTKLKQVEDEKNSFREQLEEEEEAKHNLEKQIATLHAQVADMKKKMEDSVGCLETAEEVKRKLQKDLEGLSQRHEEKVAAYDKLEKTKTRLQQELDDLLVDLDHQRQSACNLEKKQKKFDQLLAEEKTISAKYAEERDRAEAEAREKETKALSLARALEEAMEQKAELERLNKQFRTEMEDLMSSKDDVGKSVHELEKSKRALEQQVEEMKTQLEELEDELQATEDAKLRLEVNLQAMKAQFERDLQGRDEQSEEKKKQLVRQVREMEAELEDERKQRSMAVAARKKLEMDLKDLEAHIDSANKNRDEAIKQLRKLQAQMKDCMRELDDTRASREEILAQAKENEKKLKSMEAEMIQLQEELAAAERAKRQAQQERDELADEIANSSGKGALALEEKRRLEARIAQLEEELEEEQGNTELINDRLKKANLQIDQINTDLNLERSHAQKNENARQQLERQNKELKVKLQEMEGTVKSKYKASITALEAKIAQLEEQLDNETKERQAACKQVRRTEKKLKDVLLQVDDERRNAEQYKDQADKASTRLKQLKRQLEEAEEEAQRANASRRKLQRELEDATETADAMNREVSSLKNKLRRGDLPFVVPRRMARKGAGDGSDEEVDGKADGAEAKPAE

In article PMC2797798 one finds binding data, which are given here for one substance.

In the assay the target is T1, FLAG-tagged Gas8 (human) (UniProt O95995).
T1 sequence: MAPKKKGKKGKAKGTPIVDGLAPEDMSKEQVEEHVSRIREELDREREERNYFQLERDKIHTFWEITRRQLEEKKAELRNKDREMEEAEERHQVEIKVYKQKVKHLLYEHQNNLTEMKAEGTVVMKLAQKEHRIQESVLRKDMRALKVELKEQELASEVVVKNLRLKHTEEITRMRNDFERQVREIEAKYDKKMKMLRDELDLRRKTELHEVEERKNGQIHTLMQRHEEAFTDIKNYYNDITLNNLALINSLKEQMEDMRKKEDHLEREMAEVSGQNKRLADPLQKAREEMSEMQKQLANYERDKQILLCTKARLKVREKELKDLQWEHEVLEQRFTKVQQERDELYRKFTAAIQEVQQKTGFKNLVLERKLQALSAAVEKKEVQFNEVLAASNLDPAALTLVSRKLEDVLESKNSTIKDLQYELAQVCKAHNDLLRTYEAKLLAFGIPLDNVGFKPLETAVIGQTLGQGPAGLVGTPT
Briefly: affinity purification with mass spectrom.

On to myosin-9 (from UniProt P35579 1-1960), for which the binding entry is reported as “binds”.
